Experimental data published in PMC5923425, “Structural analysis of human ARS2 as a platform for co-transcriptional RNA sorting” (Nature Communications, 2018).
Results are given in words; binding and its absence hold for the method and conditions named. For some assays here: Binding can be weak; no strength is given.

The chains behind the UniProt entries cited, without tags or fusion partners. Where a name states a change or a piece, a line headed by the entry shows the natural chain unless it says otherwise. Residues count along the entry.
UniProt Q9UKL3, residues 903-943: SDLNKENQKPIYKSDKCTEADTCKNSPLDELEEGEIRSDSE
UniProt Q09161: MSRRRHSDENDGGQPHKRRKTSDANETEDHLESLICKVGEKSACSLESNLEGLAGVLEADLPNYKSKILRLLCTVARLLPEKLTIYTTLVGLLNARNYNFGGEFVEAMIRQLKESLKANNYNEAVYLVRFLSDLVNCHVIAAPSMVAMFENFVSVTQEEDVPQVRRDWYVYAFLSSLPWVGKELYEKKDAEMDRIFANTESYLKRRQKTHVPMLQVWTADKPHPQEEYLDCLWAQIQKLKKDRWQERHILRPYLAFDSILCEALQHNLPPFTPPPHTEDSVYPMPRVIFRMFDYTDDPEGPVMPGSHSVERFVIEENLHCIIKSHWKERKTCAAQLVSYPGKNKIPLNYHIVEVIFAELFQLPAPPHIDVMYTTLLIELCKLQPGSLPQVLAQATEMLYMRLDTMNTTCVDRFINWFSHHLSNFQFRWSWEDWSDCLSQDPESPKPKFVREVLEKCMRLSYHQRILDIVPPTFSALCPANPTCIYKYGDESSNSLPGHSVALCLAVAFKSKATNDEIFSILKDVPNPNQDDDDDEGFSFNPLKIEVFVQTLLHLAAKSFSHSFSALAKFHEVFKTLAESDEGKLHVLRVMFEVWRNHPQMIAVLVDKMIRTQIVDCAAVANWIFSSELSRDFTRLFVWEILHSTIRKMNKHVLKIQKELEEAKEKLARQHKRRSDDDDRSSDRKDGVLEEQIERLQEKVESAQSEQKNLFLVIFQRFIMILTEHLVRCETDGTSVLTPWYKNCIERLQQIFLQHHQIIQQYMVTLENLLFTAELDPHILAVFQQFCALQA

T1: NCBP3^1–282 (human) (UniProt Q53F19)
T1 sequence: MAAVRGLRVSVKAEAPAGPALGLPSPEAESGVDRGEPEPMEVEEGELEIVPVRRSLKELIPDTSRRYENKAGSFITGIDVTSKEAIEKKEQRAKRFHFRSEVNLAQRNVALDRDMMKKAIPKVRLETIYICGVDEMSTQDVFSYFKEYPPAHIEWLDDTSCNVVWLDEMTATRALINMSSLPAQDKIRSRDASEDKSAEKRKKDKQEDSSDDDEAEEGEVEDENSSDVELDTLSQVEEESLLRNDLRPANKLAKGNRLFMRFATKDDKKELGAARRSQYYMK

T2: FARB (FLASH–ARS2-binding region) peptide of FLASH, residues 931–943
T2 sequence (peptide): DELEEGEIRSDSE

B1: full-length NCBP3 (residues 1–620) (natural protein, human, UniProt Q53F19-1 1-620, looked up)
chain: MAAVRGLRVSVKAEAPAGPALGLPSPEAESGVDRGEPEPMEVEEGELEIVPVRRSLKELIPDTSRRYENKAGSFITGIDVTSKEAIEKKEQRAKRFHFRSEVNLAQRNVALDRDMMKKAIPKVRLETIYICGVDEMSTQDVFSYFKEYPPAHIEWLDDTSCNVVWLDEMTATRALINMSSLPAQDKIRSRDASEDKSAEKRKKDKQEDSSDDDEAEEGEVEDENSSDVELDTLSQVEEESLLRNDLRPANKLAKGNRLFMRFATKDDKKELGAARRSQYYMKYGNPNYGGMKGILSNSWKRRYHSRRIQRDVIKKRALIGDDVGLTSYKHRHSGLVNVPEEPIEEEEEEEEEEEEEEEEDQDMDADDRVVVEYHEELPALKQPRERSASRRSSASSSDSDEMDYDLELKMISTPSPKKSMKMTMYADEVESQLKNIRNSMRADSVSSSNIKNRIGNKLPPEKFADVRHLLDEKRQHSRPRPPVSSTKSDIRQRLGKRPHSPEKAFSSNPVVRREPSSDVHSRLGVPRQDSKGLYADTREKKSGNLWTRLGSAPKTKEKNTKKVDHRAPGAEEDDSELQRAWGALIKEKEQSRQKKSRLDNLPSLQIEVSRESSSGSEAES
notes: human NCBP3, full length, residues 1-620, cloned into pFASTBac HTb; also called NCBP3^1–620; source: High Five insect cells, purified; not shown: His6, N-terminal, cleaved

Experiments:
[1] = molecular target: B1; assay: pull-down; purified recombinant NCBP3 constructs immobilised on m7GTP sepharose, incubated with CBP80 and/or wild type or mutant ARS2; eluted fractions on Coomassie-stained SDS-PAGE; both purified
[2] = molecular target: B1; assay: SEC; purified proteins mixed, Superdex 200, 120 mM NaCl, 1 mM TCEP, 20 mM HEPES pH 7.8; in the absence of m7GTP; fractions on SDS-PAGE; both purified
NCBP3^1–282 (human) [3] = molecular target: T1, NCBP3^1–282 (human); assay: pull-down; purified recombinant NCBP3 constructs immobilised on m7GTP sepharose, incubated with CBP80 and/or wild type or mutant ARS2; eluted fractions on Coomassie-stained SDS-PAGE; both purified
NCBP3^1–282 (human) [4] = molecular target: T1, NCBP3^1–282 (human); assay: ITC; MicroCal ITC200, 25 °C, ARS2 constructs with NCBP3 1–282; buffer containing 250 mM NaCl; injections of 2.5 µL; both purified
[5] = molecular target: T2, FARB (FLASH–ARS2-binding region) peptide of FLASH, residues 931–943; assay: ITC; MicroCal ITC200, 25 °C, ARS2 constructs with FLASH peptides; high salt (HS): buffer containing 250 mM NaCl; single-site fit; which partner was injected is not told; both purified
GST–FLASH^903–943 = GST–FLASH^903–943 (UniProt Q9UKL3); assay: pull-down; GST–FLASH 903–943 (or GST as control) immobilised on glutathione sepharose, incubated with purified ARS2 constructs 30 min at 10 °C; flow-through, wash and elution on Coomassie-stained SDS-PAGE; both purified
[6] = molecular target: nuclear cap-binding complex (CBC): CBP20 with CBP80ΔNLS (human); assay: SEC; purified proteins mixed, Superdex 200, 120 mM NaCl, 1 mM TCEP, 20 mM HEPES pH 7.8; in the absence of m7GTP; fractions on SDS-PAGE; both purified
[7] = molecular target: nuclear cap-binding complex (CBC): CBP20 with CBP80ΔNLS (human); assay: SEC; CBC, NCBP3 and ARS2 147–871 mixed in the presence of m7GTP, Superdex 200, 120 mM NaCl, 1 mM TCEP, 20 mM HEPES pH 7.8; fractions on SDS-PAGE; both purified

binding [1] | binding (NCBP3^1–282 (human) [3]) | binding [7] | Molecule | also measured
binds |  |  | ARS2^171–270+408–763ΔloopAΔloopB (from UniProt Q9BXP5-4) (domain or fragment) | 
binds | no binding |  | CBP80ΔNLS (from UniProt Q09161) | binding [2]: binds
 | no binding |  | ARS2^(147–871 Δ694–742GSG) (from UniProt Q9BXP5-4) (domain or fragment) | binding (NCBP3^1–282 (human) [4]): no binding; binding [5]: no binding; binding (GST–FLASH^903–943): no binding
 |  | binds | B1 | binding [6]: binds
 |  | binds | ARS2^147–871 (domain or fragment, UniProt Q9BXP5-4 147-871) PVMKTFKEFLLSLDDSVDETEAVKRYNDYKLDFRRQQMQDFFLAHKDEEWFRSKYHPDEVGKRRQEARGALQNRLRVFLSLMETGWFDNLLLDIDKADAIVKMLDAAVIKMEGGTENDLRILEQEEEEEQAGKPGEPSKKEEGRAGAGLGDGERKTNDKDEKKEDGKQAENDSSNDDKTKKSEGDGDKEEKKEDSEKEAKKSSKKRNRKHSGDDSFDEGSVSESESESESGQAEEEKEEAEALKEKEKPKEEEWEKPKDAAGLECKPRPLHKTCSLFMRNIAPNISRAEIISLCKRYPGFMRVALSEPQPERRFFRRGWVTFDRSVNIKEICWNLQNIRLRECELSPGVNRDLTRRVRNINGITQHKQIVRNDIKLAAKLIHTLDDRTQLWASEPGTPPLPTSLPSQNPILKNITDYLIEEVSAEEEELLGSSGGAPPEEPPKEGNPAEINVERDEKLIKVLDKLLLYLRIVHSLDYYNTCEYPNEDEMPNRCGIIHVRGPMPPNRISHGEVLEWQKTFEEKLTPLLSVRESLSEEEAQKMGRKDPEQEVEKFVTSNTQELGKDKWLCPLSGKKFKGPEFVRKHIFNKHAEKIEEVKKEVAFFNNFLTDAKRPALPEIKPAQPPGPAQSLTPGLPYPHQTPQGLMPYGQPRPPILGYGAGAVRPAVPTGGPPYPHAPYGAGRGNYDAFRGQGGYPGKPRNRMVRGDPRAIVEYRDLDAPDDVDFF | 
